One molecule from PMC1904229 can be followed below.

Results are given in words; binding and its absence hold for the method and conditions named. Some entries that bind do so weakly or less than the wild type.

The target in the assay is T1, Murine full-length WOX1, bait in pSos (murine) (UniProt Q91WL8).
T1 sequence: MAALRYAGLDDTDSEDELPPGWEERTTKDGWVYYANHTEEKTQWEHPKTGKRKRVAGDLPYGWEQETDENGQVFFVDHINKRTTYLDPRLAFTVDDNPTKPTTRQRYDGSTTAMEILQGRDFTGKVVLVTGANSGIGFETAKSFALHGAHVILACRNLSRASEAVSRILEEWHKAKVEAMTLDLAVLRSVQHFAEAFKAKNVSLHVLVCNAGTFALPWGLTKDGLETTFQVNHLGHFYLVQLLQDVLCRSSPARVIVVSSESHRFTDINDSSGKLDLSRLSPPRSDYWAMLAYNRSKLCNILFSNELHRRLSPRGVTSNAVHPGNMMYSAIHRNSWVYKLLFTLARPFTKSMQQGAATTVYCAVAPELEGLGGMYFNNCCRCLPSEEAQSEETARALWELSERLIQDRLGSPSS
Briefly: two-hybrid; Ras rescue-based cytoplasmic yeast two-hybrid (CytoTrap, Stratagene); Sos-tagged bait (pSos) and myristoylation-signal-tagged, membrane-anchored target (pMyr); growth of mutant yeast cdc25H at 37°C on a selective plate containing galactose.

B1: Full-length TRADD (tumor necrosis factor receptor type 1-associated death domain protein), two-hybrid construct (protein, UniProt Q15628 1-312)
chain: MAAGQNGHEEWVGSAYLFVESSLDKVVLSDAYAHPQQKVAVYRALQAALAESGGSPDVLQMLKIHRSDPQLIVQLRFCGRQPCGRFLRAYREGALRAALQRSLAAALAQHSVPLQLELRAGAERLDALLADEERCLSCILAQQPDRLRDEELAELEDALRNLKCGSGARGGDGEVASAPLQPPVPSLSEVKPPPPPPPAQTFLFQGQPVVNRPLSLKDQQTFARSVGLKWRKVGRSLQRGCRALRDPALDSLAYEYEREGLYEQAFQLLRRFVQAEGRRATLQRLVEALEENELTSLAEDLLGLTDPNGGLA
As to B1, the binding result is recorded as “binds”.
